Data source: PubChem BioAssay AID1224830 (NIAID, 2016)
Shown is an unselected part of about 18,000 reagents tested. Of all reagents, about 2,900 (16%) were called active. 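Calls are made per well; low scores hint the gene aids the LPS response, high scores that it dampens it.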 Repeated entries: four replicate wells of each siRNA pool.

Purpose: 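Host factors that control LPS-induced TNF expression in human macrophages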 (primary screen)
System: human THP-1 monocytic leukaemia cells, TNF dual-luciferase reporter clone, PMA-differentiated to macrophage-like cells
Reagent: siRNA pool against human genes, 50 nM
Duration: LPS for 4 h, given about 3 days after siRNA transfection
Conditions: bacterial LPS (TLR4 ligand), 10 ng/ml
Detection: 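Ratio of firefly to renilla light, scaled to the plate median and expressed as a robust z-score per replicate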
Reading the numbers: TNF reporter robust z-score: higher = stronger TNF reporter response to LPS
Active means: 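a well is active when its z-score exceeds 2.8 or falls below -1.5; control wells carry no call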

no.	gene	TNF reporter robust z-score	Outcome
1	ADORA1	0.19	inactive
2	ADORA1	1.91	inactive
3	ADORA1	1.42	inactive
4	ADORA1	0.85	inactive
5	ABO	-0.56	inactive
6	ABO	0.81	inactive
7	ABO	1.29	inactive
8	ABO	-0.75	inactive
9	SNAPC5	0.18	inactive
10	SNAPC5	-0.06	inactive
11	SNAPC5	0	inactive
12	SORT1	0.08	inactive
13	SORT1	-0.97	inactive
14	SORT1	-1.16	inactive
15	SORT1	-0.29	inactive
16	MYO9A	1.32	inactive
17	MYO9A	0.71	inactive
18	MYO9A	0.83	inactive
19	MYO9A	1.23	inactive
20	PRSS50	-0.15	inactive
21	PRSS50	-0.32	inactive
22	PRSS50	-0.46	inactive
23	PRSS50	-0.58	inactive
24	F11	0.93	inactive
25	F11	1.66	inactive
26	F11	1.51	inactive
27	F11	1.65	inactive
28	DNAJC27	-0.85	inactive
29	DNAJC27	-0.95	inactive
30	DNAJC27	-1.02	inactive
31	DNAJC27	-0.75	inactive
32	CRISPLD2	1.21	inactive
33	CRISPLD2	2.55	inactive
34	CRISPLD2	0.69	inactive
35	CRISPLD2	2.34	inactive
36	HCAR2	-0.82	inactive
37	HCAR2	-0.99	inactive
38	HCAR2	-1.34	inactive
39	HCAR2	-0.2	inactive
40	CSNK2A2	-2.11	active
41	CSNK2A2	-1.93	active
42	CSNK2A2	-2	active
43	CSNK2A2	-1.14	inactive
44	ETNK1	0.54	inactive
45	ETNK1	0.5	inactive
46	ETNK1	0.44	inactive
47	ETNK1	0.95	inactive
48	NMNAT2	2.48	inactive
49	NMNAT2	3.22	active
50	NMNAT2	3.51	active
51	NMNAT2	5.85	active
52	KIF6	-0.82	inactive
53	KIF6	-0.94	inactive
54	KIF6	-0.84	inactive
55	KIF6	-0.58	inactive
56	PCNP	1.11	inactive
57	PCNP	3.35	active
58	PCNP	-0.08	inactive
59	PCNP	-0.46	inactive
60	AP2B1	1	inactive
61	AP2B1	1.33	inactive
62	AP2B1	1.29	inactive
63	AP2B1	1.23	inactive
64	SMYD5	1.4	inactive
65	SMYD5	1.66	inactive
66	SMYD5	0.06	inactive
67	SMYD5	2.08	inactive
68	F2R	-0.48	inactive
69	F2R	2.12	inactive
70	F2R	0.78	inactive
71	F2R	0.19	inactive
72	KCNMA1	-0.09	inactive
73	KCNMA1	0.22	inactive
74	KCNMA1	-0.11	inactive
75	KCNMA1	0.21	inactive
76	PRORP	0.4	inactive
77	PRORP	0.94	inactive
78	PRORP	0.12	inactive
79	PRORP	0.9	inactive
80	SOX14	-0.01	inactive
81	SOX14	-0.35	inactive
82	SOX14	-1.16	inactive
83	SOX14	-0.59	inactive
84	HBQ1	-0.87	inactive
85	HBQ1	-0.51	inactive
86	HBQ1	-0.55	inactive
87	HBQ1	-0.91	inactive
88	USP9Y	-1.18	inactive
89	USP9Y	-0.68	inactive
90	USP9Y	-0.41	inactive
91	USP9Y	0.57	inactive
92	TERT	2.29	inactive
93	TERT	0.12	inactive
94	TERT	-0.42	inactive
95	TERT	-0.08	inactive
96	GJB4	-0.87	inactive
97	GJB4	-0.24	inactive
98	GJB4	0.57	inactive
99	GJB4	-0.66	inactive
100	COL9A1	-0.55	inactive
101	COL9A1	-0.86	inactive
102	COL9A1	-0.42	inactive
103	COL9A1	-0.22	inactive
104	CLDN10	1.76	inactive
105	CLDN10	1.23	inactive
106	CLDN10	0	inactive
107	CLDN10	0.85	inactive
108	ABLIM2	0.48	inactive
109	ABLIM2	-0.02	inactive
110	ABLIM2	0.62	inactive
